1 substance from patent US6613875B1 (The Scripps Research Institute, priority 1993, dated 2003) can be followed below.

This data set in a line: general procedure: Boc solid-phase peptide synthesis; PAM resin; BOP/DIEA; cyclisation with TBTU/HOBt/DIEA. The note with it: cyclisation step, on linear precursor.

For “cyclo[-(L-Phe-D-^Me NAla)4-] (FAFAFAFA; cyclic; N-methyl D-alanines; artificial sequence, peptide tube incorporating D-amino acids, the peptide is a cyclic peptide)”, the cyclisation yield was 70%.
